Assay results published in patent US8148089B2, “Alpha-synuclein kinase” (Elan Pharma International Limited, priority 2006, dated 2012).
At least one structure is not confirmed: it was looked up by name or label, or the drawing left a doubt.

Test system: synuclein phosphorylation in the cellular paradigms tested
Assay: Inhibition of synuclein phosphorylation, several cellular paradigms
Type: cell-based
Conditions: in any of the cells or in the in vitro assay

COC[C@H]1OC(=O)c2coc3c2[C@@]1(C)C1=C(C3=O)[C@@H]2CCC(=O)[C@@]2(C)C[C@H]1OC(C)=O [Wortmannin]
inhibition of 50% of synuclein phosphorylation: did not inhibit 50% of synuclein phosphorylation
